Patent US20170189504A1, “NOVEL PEPTIDES AND COMBINATION OF PEPTIDES FOR USE IN IMMUNOTHERAPY AGAINST VARIOUS CANCERS” (immatics biotechnologies GmbH, priority 2015, published 2017)

How the values were obtained:
HLA-A*24 = test: Identification and relative LC-MS quantitation of HLA-A*24-presented tumor-associated peptides on tissue samples (presentation profiles, Tables 14A, 14B, 16, FIG. 1); set-up: species or system human; key to Presentation score GC / Presentation score NSCLC / Presentation score PCA / Presentation score GB / Presentation score HCC / Presentation score RCC: specifically presented on tumors (++++); very highly over-presented on tumors compared to a panel of normal tissues (+++); highly over-presented on tumors compared to a panel of normal tissues (++); over-presented on tumors compared to a panel of normal tissues (+); conditions: for Presentation score NSCLC: non-small cell lung cancer (N = 91) vs panel of normal tissues (N = 70); for Peptide Presentation on cancer entities: Table 14A, HLA-A*24-binding tumor-associated peptides, cancer entities on which the peptide was found presented; for Presentation score GC: gastric cancer (N = 44) vs panel of normal tissues (N = 70)
source genes (mRNA) [1] = test: Expression profiling of source genes by in-house RNASeq of tumor and normal tissues (Table 18, FIG. 2); set-up: species or system human; key: very highly over-expressed in tumors compared to a panel of normal tissues (+++); highly over-expressed in tumors compared to a panel of normal tissues (++); over-expressed in tumors compared to a panel of normal tissues (+); conditions: source gene of peptide; for Expression score OSCAR: esophageal cancer incl. gastric-esophageal junction (N = 11) vs panel of normal tissues; for Expression score GB: glioblastoma (N = 24) vs panel of normal tissues; for Expression score NHL: non-Hodgkin lymphoma (N = 10) vs panel of normal tissues; for Expression score NSCLC: non-small cell lung cancer (N = 11) vs panel of normal tissues; for Expression score OC: ovarian cancer (N = 12) vs panel of normal tissues; for Expression score SCLC: small cell lung cancer (N = 10) vs panel of normal tissues; for Expression score UBC: urinary bladder cancer (N = 10) vs panel of normal tissues
source genes (mRNA) [2] = test: Gene and exon expression of source genes, TCGA tumor samples compared with normal tissue samples (Lonsdale, 2013) (Table 17); set-up: species or system human; conditions: for Over-expression category of source gene (target coverage), BLCA: BLCA = Bladder urothelial carcinoma (N = 408); for Over-expression category of source gene (target coverage), BRCA: BRCA = Breast cancer (N = 1104), tumors more than 2-fold above highest 75% percentile of normal tissues; for Over-expression category of source gene (target coverage), CHOL: CHOL = Cholangiocarcinoma (N = 36); for Over-expression category of source gene (target coverage), COAD: COAD = Colon and rectal adenocarcinoma (N = 462); for Over-expression category of source gene (target coverage), DLBC: DLBC = Lymphoid neoplasm diffuse large B-cell lymphoma (N = 48); for Over-expression category of source gene (target coverage), ESCA: ESCA = Esophageal cancer (N = 185); for Over-expression category of source gene (target coverage), GBM: GBM = Glioblastoma multiforme (N = 169); for Over-expression category of source gene (target coverage), LAML: LAML = Acute Myeloid Leukemia (N = 173); for Over-expression category of source gene (target coverage), LIHC: LIHC = Liver hepatocellular carcinoma (N = 374); for Over-expression category of source gene (target coverage), LUAD: LUAD = Lung adenocarcinoma (N = 517); for Over-expression category of source gene (target coverage), LUSC: LUSC = Lung squamous cell carcinoma (N = 503); for Over-expression category of source gene (target coverage), OV: OV = Ovarian serous cystadenocarcinoma (N = 309); for Over-expression category of source gene (target coverage), READ: READ = Colon and rectal adenocarcinoma (N = 167); for Over-expression category of source gene (target coverage), SKCM: SKCM = Skin cutaneous melanoma (N = 473); for Over-expression category of source gene (target coverage), STAD: STAD = Stomach adenocarcinoma (N = 415); for Over-expression category of source gene (target coverage), UCEC: UCEC = Uterine corpus endometrial carcinoma (N = 546)

Substance	Presentation score NSCLC (HLA-A*24; HLA-A*24 peptides)	Peptide Presentation on cancer entities (HLA-A*24)	Expression score OSCAR (source genes (mRNA) [1])	Expression score GB (source genes (mRNA) [1])	Expression score NHL (source genes (mRNA) [1])	Expression score NSCLC (source genes (mRNA) [1])	Expression score OC (source genes (mRNA) [1])	Expression score SCLC (source genes (mRNA) [1])	Over-expression category of source gene (target coverage), BLCA (source genes (mRNA) [2]; same cutoff)	Over-expression category of source gene (target coverage), BRCA (source genes (mRNA) [2])	Over-expression category of source gene (target coverage), CHOL (source genes (mRNA) [2]; same cutoff)	Over-expression category of source gene (target coverage), COAD (source genes (mRNA) [2]; same cutoff)	Over-expression category of source gene (target coverage), DLBC (source genes (mRNA) [2]; same cutoff)	Over-expression category of source gene (target coverage), ESCA (source genes (mRNA) [2]; same cutoff)	Over-expression category of source gene (target coverage), LUAD (source genes (mRNA) [2]; same cutoff)	Over-expression category of source gene (target coverage), LUSC (source genes (mRNA) [2]; same cutoff)	Over-expression category of source gene (target coverage), READ (source genes (mRNA) [2]; same cutoff)	Over-expression category of source gene (target coverage), SKCM (source genes (mRNA) [2]; same cutoff)	Over-expression category of source gene (target coverage), STAD (source genes (mRNA) [2]; same cutoff)	Over-expression category of source gene (target coverage), UCEC (source genes (mRNA) [2]; same cutoff)	other results
192: peptide found in TYMS (gene looked up) (SYALLTYMI; listed as Homo sapiens) [compound 192]	++++	NSCLC	+	+	++	+	+	+++	B (>= 20% of tumors above the cutoff, but <50%)	B (>= 20% of tumors above the cutoff, but <50%)	C (>=5% of tumors above the cutoff, but <20%)	B (>= 20% of tumors above the cutoff, but <50%)	A (>=50% of tumors above the cutoff)	B (>= 20% of tumors above the cutoff, but <50%)	C (>=5% of tumors above the cutoff, but <20%)	B (>= 20% of tumors above the cutoff, but <50%)	B (>= 20% of tumors above the cutoff, but <50%)	A (>=50% of tumors above the cutoff)	B (>= 20% of tumors above the cutoff, but <50%)	A (>=50% of tumors above the cutoff)	Expression score AML (source genes (mRNA) [1]; acute myeloid leukemia (N = 11) vs panel of normal tissues): +; Expression score UBC (source genes (mRNA) [1]): +; Over-expression category of source gene (target coverage), GBM (source genes (mRNA) [2]; same cutoff): A (>=50% of tumors above the cutoff); Over-expression category of source gene (target coverage), KIRC (source genes (mRNA) [2]; KIRC = Clear cell kidney carcinoma (N = 534), same cutoff): B (>= 20% of tumors above the cutoff, but <50%); Over-expression category of source gene (target coverage), KIRP (source genes (mRNA) [2]; KIRP = Papillary kidney carcinoma (N = 291), same cutoff): B (>= 20% of tumors above the cutoff, but <50%); Over-expression category of source gene (target coverage), LAML (source genes (mRNA) [2]; same cutoff): A (>=50% of tumors above the cutoff); Over-expression category of source gene (target coverage), LGG (source genes (mRNA) [2]; LGG = Lower grade glioma (N = 534), same cutoff): C (>=5% of tumors above the cutoff, but <20%); Over-expression category of source gene (target coverage), LIHC (source genes (mRNA) [2]; same cutoff): C (>=5% of tumors above the cutoff, but <20%); Over-expression category of source gene (target coverage), OV (source genes (mRNA) [2]; same cutoff): B (>= 20% of tumors above the cutoff, but <50%)
199: peptide found in NANS (gene looked up) (RYAEEVGIF; listed as Homo sapiens) [compound 199]		GC, NSCLC, HCC, PCA							B (>= 20% of tumors above the cutoff, but <50%)	A (>=50% of tumors above the cutoff)	C (>=5% of tumors above the cutoff, but <20%)	A (>=50% of tumors above the cutoff)	A (>=50% of tumors above the cutoff)	C (>=5% of tumors above the cutoff, but <20%)	C (>=5% of tumors above the cutoff, but <20%)	C (>=5% of tumors above the cutoff, but <20%)	A (>=50% of tumors above the cutoff)	B (>= 20% of tumors above the cutoff, but <50%)	B (>= 20% of tumors above the cutoff, but <50%)	B (>= 20% of tumors above the cutoff, but <50%)	Presentation score GC (HLA-A*24; HLA-A*24 peptides): +; Presentation score PCA (HLA-A*24; HLA-A*24 peptides, prostate cancer (N = 40) vs panel of normal tissues (N = 70)): ++; Expression score PCA (source genes (mRNA) [1]; prostate cancer and benign prostate hyperplasia (N = 5) vs panel of normal tissues): +; Over-expression category of source gene (target coverage), OV (source genes (mRNA) [2]; same cutoff): C (>=5% of tumors above the cutoff, but <20%); Over-expression category of source gene (target coverage), PAAD (source genes (mRNA) [2]; PAAD = Pancreatic ductal adenocarcinoma (N = 179), same cutoff): B (>= 20% of tumors above the cutoff, but <50%); Over-expression category of source gene (target coverage), PRAD (source genes (mRNA) [2]; PRAD = Prostate adenocarcinoma (N = 498), same cutoff): A (>=50% of tumors above the cutoff)
165: peptide found in SPAG5 (gene looked up) (DYTTWTALL; listed as Homo sapiens) [compound 165]	++++	GC, NSCLC	+	+	++	+	+	++	B (>= 20% of tumors above the cutoff, but <50%)	C (>=5% of tumors above the cutoff, but <20%)	C (>=5% of tumors above the cutoff, but <20%)	C (>=5% of tumors above the cutoff, but <20%)	A (>=50% of tumors above the cutoff)	B (>= 20% of tumors above the cutoff, but <50%)	C (>=5% of tumors above the cutoff, but <20%)	B (>= 20% of tumors above the cutoff, but <50%)	C (>=5% of tumors above the cutoff, but <20%)	C (>=5% of tumors above the cutoff, but <20%)	C (>=5% of tumors above the cutoff, but <20%)	B (>= 20% of tumors above the cutoff, but <50%)	Presentation score GC (HLA-A*24; HLA-A*24 peptides): ++++; Expression score BRCA (source genes (mRNA) [1]; BRCA tumors vs panel of normal tissues): +; Expression score UBC (source genes (mRNA) [1]): +; Over-expression category of source gene (target coverage), GBM (source genes (mRNA) [2]; same cutoff): C (>=5% of tumors above the cutoff, but <20%); Over-expression category of source gene (target coverage), LAML (source genes (mRNA) [2]; same cutoff): C (>=5% of tumors above the cutoff, but <20%); Over-expression category of source gene (target coverage), LIHC (source genes (mRNA) [2]; same cutoff): C (>=5% of tumors above the cutoff, but <20%)

For some assays here: Expression grades refer to the transcript from which the peptide derives; gene names, where given, were looked up from the sequence.
